Laboratory results: PubChem BioAssay AID1259303 (Sanger Institute, 2017)
The deposit covers 160 reagents; this is a random part of them. Over the whole deposit, 11 (6.9%) were called active. 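Viability capped at 1; how the synergy score is calculated is not stated; four separate siRNAs target each gene.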 The numbers tell different reagents against one gene apart. Further read-outs or replicates are left out here. The record does not give: the amount of reagent, the time to read-out.

Aim: 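Kinase knock-downs that boost colorectal cancer cell killing by anticancer drugs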 (follow-up of hits)
Cells: human COLO320HSR colorectal cancer cells
Reagent: single siRNA against human genes
Treatment: anchor drug BYL719 (1 µM), cetuximab (5 µg/ml) or trametinib (10 nM), or DMSO vehicle alone
Read-out: 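Synergy of each knock-down with BYL719 (1 µM), cetuximab (5 µg/ml) or trametinib (10 nM) versus drug alone, plus mean viability normalised to non-targeting pool 2 siRNA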
Scale: synergy score with BYL719: higher = stronger combined killing with BYL719; synergy score with cetuximab: higher = stronger combined killing with cetuximab; synergy score with trametinib: higher = stronger combined killing with trametinib
Active means: 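a knock-down counts as active when any of the three drug synergy scores exceeds 0.10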
Meaning of the calls: active = synergy with at least one drug; inactive = no synergy found

EPHA6 (EPH receptor A6) #1: synergy score with BYL719 = 0.0425; synergy score with cetuximab = -0.171; synergy score with trametinib = -0.253; outcome = inactive
EPHA6 (EPH receptor A6) #2: synergy score with BYL719 = 0.114; synergy score with cetuximab = -0.0263; synergy score with trametinib = -0.0497; outcome = active
EPHA6 (EPH receptor A6) #3: synergy score with BYL719 = -0.0648; synergy score with cetuximab = -0.107; synergy score with trametinib = -0.195; outcome = inactive
EPHA6 (EPH receptor A6) #4: synergy score with BYL719 = 0.0866; synergy score with cetuximab = 0; synergy score with trametinib = 0.112; outcome = active
CDK6 (cyclin dependent kinase 6) #1: synergy score with BYL719 = -0.197; synergy score with cetuximab = 0.0136; synergy score with trametinib = -0.216; outcome = inactive
CDK6 (cyclin dependent kinase 6) #2: synergy score with BYL719 = -0.212; synergy score with cetuximab = -0.123; synergy score with trametinib = -0.387; outcome = inactive
CDK6 (cyclin dependent kinase 6) #3: synergy score with BYL719 = -0.126; synergy score with cetuximab = -0.0505; synergy score with trametinib = -0.063; outcome = inactive
CDK6 (cyclin dependent kinase 6) #4: synergy score with BYL719 = -0.0796; synergy score with cetuximab = -0.149; synergy score with trametinib = -0.174; outcome = inactive

Records listed so far called active (2):
EPHA6 (EPH receptor A6) #2: synergy score with BYL719 = 0.114; synergy score with cetuximab = -0.0263; synergy score with trametinib = -0.0497; outcome = active
EPHA6 (EPH receptor A6) #4: synergy score with BYL719 = 0.0866; synergy score with cetuximab = 0; synergy score with trametinib = 0.112; outcome = active

Continued:
IKBKB (inhibitor of nuclear factor kappa B kinase subunit beta) #1: synergy score with BYL719 = -0.0644; synergy score with cetuximab = 0.099; synergy score with trametinib = -0.0288; outcome = inactive
IKBKB (inhibitor of nuclear factor kappa B kinase subunit beta) #2: synergy score with BYL719 = -0.0789; synergy score with cetuximab = -0.0371; synergy score with trametinib = -0.147; outcome = inactive
IKBKB (inhibitor of nuclear factor kappa B kinase subunit beta) #3: synergy score with BYL719 = -0.0983; synergy score with cetuximab = 0.0605; synergy score with trametinib = -0.028; outcome = inactive
IKBKB (inhibitor of nuclear factor kappa B kinase subunit beta) #4: synergy score with BYL719 = -0.0808; synergy score with cetuximab = 0.0506; synergy score with trametinib = -0.0253; outcome = inactive
